Our source for the binding values is patent US20030207393A1, “Cbp86, a sperm specific protein” (priority 2002, published 2003).

Results are given in words; binding and its absence hold for the method and conditions named. Some entries that bind do so weakly or less than the wild type. Where a sequence is shown, tags or fusion partners need not be part of it.

The target of the assay is recombinant CBP86 (CR-A of CBP86 with C-terminal six-histidine tag, expressed in E. coli) (human) (UniProt O75952). Put plainly: immunoblot of purified recombinant protein.

B1: recombinant CBP86 (CR-A of CBP86 with C-terminal six-histidine tag, expressed in E. coli) (protein, not shown: small tags and cut ends)
chain: MISSKPRLVVPYGLKTLLEGISRAVLKTNPSNINQFAAAYFQELTMYRGNTTMDIKDLVKQFHQIKVEKWSEGTTPQKKLECLKEPGKTSVESKVPTQMEKSTDTDEDNVTRTEYSDKTTQFPSVYAVPGTEQTEAVGGLSSKPATPKTTTPPSSPPPTAVSPEFAYVPADPAQLAAQMLGKVSSIHSDQSDVLMVDVATSMPVVIKEVPSSEAAEDVMVAAPLVCSGKVLEVQVVNQTSVHVDLGSQPKENEAEPSTASSVPLQDEQEPPAYDQAPEVTLQADIEVMSTVHISSVYNDVPVTEGVVYIEQLPEQIVIPFTDQVACLKENEQSKENEQSPRVSPKSVVEKTTSGMSKKSVESVKLAQLEENAKYSSVYMEAEATALLSDTSLKGQPEVPAQLLDAEGAIKIGSEKSLHLEVEVTSIVSDNTGQEESGENSVPQEMEGRPVLSGEAAEAVHSGTSVKSSSGPFPPAPEGLTAPEIEPEGESTAE
On to B1, for which the binding result is “binds”.
